This is one part of the list.
Compound: Cc1cc(ccc1-c1ccccc1)C(=O)N1CCCN(CC1)C(=O)CCl [compound 10]
Assay: probe-labelled cysteine peptide fold change vs DMSO (competition) (log2 fold change); higher = less target engagement (more negative = stronger competition)
Details: THP-1, incubation time: 4 h
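Further: competitive profiling in live THP-1 cells: cysteine peptides tagged with an iodoacetamide desthiobiotin (IA-DTB) probe, intensity after compound treatment relative to DMSO-treated cells.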

| Target | probe-labelled cysteine peptide fold change (10 µM) | probe-labelled cysteine peptide fold change (50 µM) |
| --- | --- | --- |
| GMIP_Q9P107_274_AQEAEALYQACVR (UniProt Q9P107) | 0.181 | 0.0797 |
| GNE_Q9Y223_303_HVPFDQFIQLVAHAGCMIGNSSCGVR (UniProt Q9Y223) | -0.0786 | 0.0743 |
| GLG1_Q92896_659_TETGQELECLQDHLDDLVVECR (UniProt Q92896) | -0.38 | -0.0245 |
| GORAB_Q5T7V8_354_CQEQAVSPK (UniProt Q5T7V8) | -0.428 | -0.114 |
| GLCCI1_Q86VQ1_207_ATQTPSCWAEEGAEKR (UniProt Q86VQ1) | -0.296 | -0.564 |
| GLO1_Q04760_61_CDFPIMK (UniProt Q04760) | -0.0342 | 0.0211 |
| GNAI2_P04899_66_IIHEDGYSEEECR (UniProt P04899) | 0.0083 | 0.0719 |
| GOSR2_O14653_18_QVHEIQSCMGR (UniProt O14653) | 0.169 | -0.00208 |
| GNPDA2_Q8TDQ7_118_HIDIDPNNAHILDGNAADLQAECDAFENK (UniProt Q8TDQ7) | -0.108 | 0.27 |
| GPHN_Q9NQX3_154_KGSQECFQFILPALPHAIDLLR (UniProt Q9NQX3) | -0.132 | -0.149 |
| GOT2_P00505_382_KEGSTHNWQHITDQIGMFCFTGLKPEQVER (UniProt P00505) | 0.106 | 0.0175 |
| GPC4_O75487_341_VFQGCGPPKPLPAGR (UniProt O75487) | -0.353 | -0.584 |
| GNB1L_Q9BYB4_206_IACHEEPVMDLDFDSQK (UniProt Q9BYB4) | -0.306 | -0.28 |
| GLG1_Q92896_950_FCHGILTK (UniProt Q92896) | -0.298 | 0.0885 |
| GOLGA4_Q13439_1729_NVAAYTEQEEADSQGCVQK (UniProt Q13439) | -0.0132 | 0.0434 |
| GNPDA1_P46926_239_TVFVCDEDATLELK (UniProt P46926) | 0.043 | -0.0344 |
| GNL1_P36915_365_YKDGVVTIGCVGFPNVGK (UniProt P36915) | -0.0143 | -0.869 |
| GOLGA4_Q13439_1085_ILLFGCEK (UniProt Q13439) | -0.11 | 0.095 |
| GNL3L_Q9NVN8_278_ACSVGAVPGITK (UniProt Q9NVN8) | -0.00424 | -0.69 |
| GNPTG_Q9UJJ9_142_VELACGK (UniProt Q9UJJ9) | -0.307 | 0.0807 |
| GOT2_P00505_187+212_TCGFDFTGAVEDISKIPEQSVLLLHACAHNPTGVDPRPEQWK (UniProt P00505) | -0.132 | 0.151 |
| GMEB2_Q9UKD1_323_DLAALEQQCDEHR (UniProt Q9UKD1) | 0.0795 | -0.191 |

| Target | probe-labelled cysteine peptide fold change (10 µM) | probe-labelled cysteine peptide fold change (50 µM) |
| --- | --- | --- |
| GNE_Q9Y223_160_LAHYHVCCTR (UniProt Q9Y223) | 0.148 | 0.0426 |
| GNPDA1_P46926_118_HIDIHPENTHILDGNAVDLQAECDAFEEK (UniProt P46926) | -0.112 | 0.04 |
| GOLGB1_Q14789_1964_CVSELEEEK (UniProt Q14789) | 0.0765 | 0.0918 |
| GMEB2_Q9UKD1_96_MAEEGENLEAEIVYPITCGDSR (UniProt Q9UKD1) | 0.133 | -0.027 |
| GNAS_P63092_3_GCLGNSK (UniProt P63092) | -0.17 | -0.377 |
| GLG1_Q92896_118_LAEEESCREDVTR (UniProt Q92896) | -0.213 | -0.117 |
| GOLGB1_Q14789_2664_IAELEEELVCVQK (UniProt Q14789) | -0.0412 | 0.127 |
| GOLGA4_Q13439_309_EQCTLLTSEK (UniProt Q13439) | -0.00902 | -0.189 |
| GMIP_Q9P107_508_ECEAFMVSGTECEECFLTCHK (UniProt Q9P107) | -0.25 | -0.091 |
| GPBP1L1_Q9HC44_365_ENGEEGCHQNGLALPVVEEGEVLSHSLEAEHR (UniProt Q9HC44) | -0.536 | 0.0923 |
| GLG1_Q92896_385_CNVENLPR (UniProt Q92896) | -0.21 | 0.0626 |
| GNL1_P36915_410_LCDCPGLIFPSLLPR (UniProt P36915) | -0.0539 | -0.2 |
| GLG1_Q92896_528_SGDPMILSCLMEHLYTEK (UniProt Q92896) | -0.0605 | -0.00286 |
| GM2A_P17900_138_TYGLPCHCPFK (UniProt P17900) | 0.19 | 0.189 |
| GOT2_P00505_272_HFIEQGINVCLCQSYAK (UniProt P00505) | 0.22 | 0.311 |
| GNAI2_P04899_287_ITHSPLTICFPEYTGANK (UniProt P04899) | 0.0813 | 0.0927 |
| GOLGB1_Q14789_2279_VCDTLQGENK (UniProt Q14789) | 0.0962 | -0.0317 |
| GLA_P06280_382_GVACNPACFITQLLPVKR (UniProt P06280) | 0.208 | 0.0432 |
| GMPS_P49915_456_VICAEEPYICK (UniProt P49915) | -0.0248 | -0.0701 |
| GLOD4_Q9HC38-2_41_VLRHEEFEEGCK (UniProt Q9HC38) | -0.835 | -1.19 |
| GLOD4_Q9HC38_171_SLNYWCNLLGMK (UniProt Q9HC38) | 0.0955 | 0.12 |
| GMIP_Q9P107_599_LCQAFENGR (UniProt Q9P107) | 0.00442 | 0.0787 |

| Target | probe-labelled cysteine peptide fold change (10 µM) | probe-labelled cysteine peptide fold change (50 µM) |
| --- | --- | --- |
| GNE_Q9Y223_183_ILLAGCPSYDK (UniProt Q9Y223) | 0.0586 | -0.166 |
| GPD1L_Q8N335_216_NIVAVGAGFCDGLR (UniProt Q8N335) | -0.0284 | 0.115 |
| GPA33_Q99795_43_SVTLPCTYHTSTSSR (UniProt Q99795) | -0.0898 | 0.194 |
| GORASP2_Q9H8Y8_173_LYVYNTDTDNCR (UniProt Q9H8Y8) | -0.103 | 0.167 |
| GLA_P06280_382_GVACNPACFITQLLPVK (UniProt P06280) | -0.104 | 0.17 |
| GOLGA4_Q13439_1862_ELDSCLVR (UniProt Q13439) | 0.0418 | -0.159 |
| GPD2_P43304_285_CVINATGPFTDSVR (UniProt P43304) | 0.183 | 0.169 |
| GLA_P06280_94_DAGYEYLCIDDCWMAPQR (UniProt P06280) | -0.33 | 0.124 |
| GNPNAT1_Q96EK6_45_EVDWSQNTATFSPAISPTHPGEGLVLRPLCTADLNR (UniProt Q96EK6) | 0.133 | -0.193 |
| GPATCH8_Q9UKJ3_639_MDAPASGSACSGLNK (UniProt Q9UKJ3) | -0.016 | -0.523 |
| GLUD1_P00367_376_PYEGSILEADCDILIPAASEK (UniProt P00367) | -0.111 | 0.297 |
| GPATCH11_Q8N954_195_ACQQLDVQK (UniProt Q8N954) | -0.0412 | -0.0321 |
| GOT2_P00505_272+274_HFIEQGINVCLCQSYAK (UniProt P00505) | 0.416 | -0.495 |
| GNAI2_P04899_326_EIYTHFTCATDTK (UniProt P04899) | 0.0663 | -0.0637 |
| GMPS_P49915_4_ALCNGDSK (UniProt P49915) | -0.313 | -0.226 |
| GOLGA3_Q08378_769_LGELQGEAASREDTICLLQNEK (UniProt Q08378) | -0.084 | -0.193 |
| GMPS_P49915_523_TVGVQGDCR (UniProt P49915) | -0.066 | -0.217 |
| GMEB1_Q9Y692_274_GIADVGLMEEVVCNIQK (UniProt Q9Y692) | 0.0817 | -0.179 |
| GPSM1_Q86YR5_497_APSSDEECFFDLLTK (UniProt Q86YR5) | -0.125 | -0.652 |
| GLG1_Q92896_155_HTWSNNLAVLECLQDVREPENEISSDCNHLLWNYK (UniProt Q92896) | -0.224 | 0.237 |
| GLG1_Q92896_269_DAHSQGEVVSCLEK (UniProt Q92896) | -0.387 | 0.00158 |
| GPKOW_Q92917_394_MIIEDVLSPDTCVCR (UniProt Q92917) | -0.0728 | -0.0778 |

| Target | probe-labelled cysteine peptide fold change (10 µM) | probe-labelled cysteine peptide fold change (50 µM) |
| --- | --- | --- |
| GNL3_Q9BVP2_131_LYCQELKK (UniProt Q9BVP2) | -0.195 | -0.305 |
| GNB2_P62879_271_ADQELLMYSHDNIICGITSVAFSR (UniProt P62879) | 0.26 | 0.282 |
| GNPNAT1_Q96EK6_150_KLNCYK (UniProt Q96EK6) | -0.301 | 0.159 |
| GLG1_Q92896_767_LCPNIK (UniProt Q92896) | -0.296 | 0.29 |
| GNAI2_P04899-6_14_KIIHEDGYSEEECR (UniProt P04899) | -0.0805 | 0.0469 |
| GNPDA1_P46926_48_YFTLGLPTGSTPLGCYK (UniProt P46926) | -0.0656 | 0.228 |
| GNS_P15586_140_SMCGYQTFFAGK (UniProt P15586) | -0.00337 | -0.0426 |
| GNPNAT1_Q96EK6_113_FIHSCAK (UniProt Q96EK6) | 0.11 | 0.018 |
| GOT1_P17174_46_TDDCHPWVLPVVK (UniProt P17174) | -0.00519 | -0.062 |
| GNL2_Q13823_362_IFLIDCPGVVYPSEDSETDIVLK (UniProt Q13823) | 0.17 | 0.122 |
| GMFG_O60234_8_SDSLVVCEVDPELTEK (UniProt O60234) | -0.0128 | 0.148 |
| GNL3_Q9BVP2_131_LYCQELK (UniProt Q9BVP2) | -0.255 | 0.148 |
| GLG1_Q92896_970_AKDDSELEGQVISCLK (UniProt Q92896) | -0.176 | 0.00524 |
| GLOD4_Q9HC38_197_ALLGYADNQCK (UniProt Q9HC38) | 0.26 | 0.109 |
| GNPAT_O15228_478_VDSGDSEVVDGLMLQHITLLMCSAYR (UniProt O15228) | 0.354 | 0.562 |
| GNB1_P62873_271_ADQELMTYSHDNIICGITSVSFSKSGR (UniProt P62873) | 0.19 | -0.0474 |
| GNL3L_Q9NVN8_518_SNSMVDVCSVDR (UniProt Q9NVN8) | 0.104 | -0.177 |
| GPD2_P43304_45_AADCISEPVNR (UniProt P43304) | -0.21 | 0.0491 |
| GMPS_P49915_252_VLVLLSGGVDSTVCTALLNR (UniProt P49915) | 0.015 | 0.275 |

Reference: the supplement of paper PMC12067093, “Discovery and optimisation of a covalent ligand for TRIM25 and its application to targeted protein ubiquitination” (Chemical Science, 2025)
